# No constants are given. Whether binding was seen depends on the method and setting. In cells and extracts the contact can be indirect. These calls come from enrichment with a bait or labelling near it, and not all partners need be listed.
# Protein sequences, listed by entry. Tags and fused reporters are not part of them.
# UniProt P40227: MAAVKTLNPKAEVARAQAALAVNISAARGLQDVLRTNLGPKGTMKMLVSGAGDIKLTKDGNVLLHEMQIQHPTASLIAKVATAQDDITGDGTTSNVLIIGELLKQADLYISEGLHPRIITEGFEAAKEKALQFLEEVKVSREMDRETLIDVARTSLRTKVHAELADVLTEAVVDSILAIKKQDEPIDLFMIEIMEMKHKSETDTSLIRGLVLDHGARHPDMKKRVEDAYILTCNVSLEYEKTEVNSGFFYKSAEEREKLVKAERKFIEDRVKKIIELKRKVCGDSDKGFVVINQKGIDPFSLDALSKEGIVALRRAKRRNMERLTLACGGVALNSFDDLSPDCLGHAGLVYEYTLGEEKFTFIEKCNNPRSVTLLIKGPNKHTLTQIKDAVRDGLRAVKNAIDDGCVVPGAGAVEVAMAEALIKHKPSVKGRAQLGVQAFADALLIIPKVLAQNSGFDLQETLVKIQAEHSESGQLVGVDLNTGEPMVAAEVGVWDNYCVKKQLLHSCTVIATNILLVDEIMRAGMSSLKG
# UniProt P35222: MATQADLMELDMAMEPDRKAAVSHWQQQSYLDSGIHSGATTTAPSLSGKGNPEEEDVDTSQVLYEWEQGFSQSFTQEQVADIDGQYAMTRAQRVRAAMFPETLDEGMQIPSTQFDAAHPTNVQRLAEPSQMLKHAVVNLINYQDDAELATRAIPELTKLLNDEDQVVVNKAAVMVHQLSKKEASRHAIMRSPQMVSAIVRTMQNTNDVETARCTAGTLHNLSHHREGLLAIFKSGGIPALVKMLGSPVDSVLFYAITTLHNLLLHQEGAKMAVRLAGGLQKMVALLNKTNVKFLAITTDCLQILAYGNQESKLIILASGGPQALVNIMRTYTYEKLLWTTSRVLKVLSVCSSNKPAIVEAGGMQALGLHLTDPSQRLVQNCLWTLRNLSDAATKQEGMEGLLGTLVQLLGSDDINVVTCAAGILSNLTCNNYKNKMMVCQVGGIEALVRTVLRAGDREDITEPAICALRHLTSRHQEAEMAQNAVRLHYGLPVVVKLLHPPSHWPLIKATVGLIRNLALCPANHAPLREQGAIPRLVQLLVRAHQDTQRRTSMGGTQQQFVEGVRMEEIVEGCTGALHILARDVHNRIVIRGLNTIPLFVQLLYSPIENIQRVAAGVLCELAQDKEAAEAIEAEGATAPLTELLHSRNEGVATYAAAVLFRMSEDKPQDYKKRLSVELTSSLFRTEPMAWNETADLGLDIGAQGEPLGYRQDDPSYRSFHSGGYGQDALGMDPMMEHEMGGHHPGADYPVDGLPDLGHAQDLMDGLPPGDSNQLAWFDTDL
# Molecular target: Flag‐tagged CCT6A (UniProt P40227)
# Test: affinity purification with mass spectrometry; IP of Flag-tagged CCT6A in HEK293T cells, silver staining, LC-MS/MS; compared with a negative control
substance,measurement,value
β‐catenin (from UniProt P35222 1-781),binding,binds
